Results are given in words; binding and its absence hold for the method and conditions named. Binding seen in cells or lysates may run through a third protein. Some entries that bind do so weakly or less than the wild type.

By UniProt entry, the sequences of proteins in these tests, tags left out.
UniProt P54645: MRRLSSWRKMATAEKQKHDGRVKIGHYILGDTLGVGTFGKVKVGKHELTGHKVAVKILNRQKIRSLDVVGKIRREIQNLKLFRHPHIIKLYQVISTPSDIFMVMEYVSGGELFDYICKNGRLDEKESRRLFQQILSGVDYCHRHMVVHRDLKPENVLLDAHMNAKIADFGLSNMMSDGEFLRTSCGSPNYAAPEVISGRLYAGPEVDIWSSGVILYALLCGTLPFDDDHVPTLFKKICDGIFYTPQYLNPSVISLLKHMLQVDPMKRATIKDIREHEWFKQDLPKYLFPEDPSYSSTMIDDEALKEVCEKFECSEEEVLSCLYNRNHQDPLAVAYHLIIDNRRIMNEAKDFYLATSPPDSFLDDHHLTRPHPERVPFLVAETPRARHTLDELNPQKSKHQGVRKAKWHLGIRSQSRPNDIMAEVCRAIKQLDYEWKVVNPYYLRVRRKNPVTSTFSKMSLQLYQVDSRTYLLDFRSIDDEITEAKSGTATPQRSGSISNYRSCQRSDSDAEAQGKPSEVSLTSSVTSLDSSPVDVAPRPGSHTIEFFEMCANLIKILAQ
UniProt Q09137: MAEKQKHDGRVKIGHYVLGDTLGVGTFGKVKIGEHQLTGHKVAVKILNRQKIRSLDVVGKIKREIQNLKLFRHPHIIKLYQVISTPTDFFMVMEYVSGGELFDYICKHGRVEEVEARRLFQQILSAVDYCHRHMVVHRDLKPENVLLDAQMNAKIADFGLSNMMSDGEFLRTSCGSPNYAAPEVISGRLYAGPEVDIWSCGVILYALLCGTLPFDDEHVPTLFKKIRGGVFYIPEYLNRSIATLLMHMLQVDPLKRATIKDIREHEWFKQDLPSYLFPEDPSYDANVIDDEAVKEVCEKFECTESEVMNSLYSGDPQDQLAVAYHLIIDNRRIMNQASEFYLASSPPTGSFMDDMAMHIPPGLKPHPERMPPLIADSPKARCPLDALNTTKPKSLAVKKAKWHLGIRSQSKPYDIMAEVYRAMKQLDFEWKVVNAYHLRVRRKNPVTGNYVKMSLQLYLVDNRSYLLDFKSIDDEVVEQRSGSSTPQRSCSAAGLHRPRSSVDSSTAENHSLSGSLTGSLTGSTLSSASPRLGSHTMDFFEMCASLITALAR

The target of experiment [1] is AMP-activated protein kinase α1 subunit (rat (endogenous in cultured rat podocytes)) (UniProt P54645). The experiment is described as follows: co-IP.
Experiment [2] concerns the target AMP-activated protein kinase α2 subunit (rat (endogenous in cultured rat podocytes)) (UniProt Q09137). Briefly: co-IP.

B1: TRPC6 channel (protein, UniProt Q99N78 1-930)
chain: MSQSPGFVTRRGGSPKAAPGAGARRNESQDYLLMDELGDDGYPQLQQPPYGYYPSFRGNENRLTHRRQTVLREKGRRLANRGPAYMFNDHSTSLSIEEERFLDAAEYGNIPVVRKMLEECLSLNVNCVDYMGQNALQLAVANEHLEITELLLKKENLSRVGDALLLAISKGYVRIVEAILNHPAFAEGKRLATSPSQSELQQDDFYAYDEDGTRFSHDVTPIILAAHCQEYEIVHTLLRKGARIERPHDYFCKCTECSQKQKHDSFSHSRSRINAYKGLASPAYLSLSSEDPVMTALELSNELAVLANIEKEFKNDYRKLSMQCKDFVVGLLDLCRNTEEVEAILNGDAETRQPGDLARPNLSRLKLAIKYEVKKFVAHPNCQQQLLSIWYENLSGLRQQTMAVKFLVVLAVAIGLPFLALIYWCAPCSKMGKILRGPFMKFVAHAASFTIFLGLLVMNAADRFEGTKLLPNETSTDNARQLFRMKTSCFSWMEMLIISWVIGMIWAECKEIWTQGPKEYLFELWNMLDFGMLAIFAASFIARFMAFWHASKAQSIIDANDTLKDLTKVTLGDNVKYYNLARIKWDPTDPQIISEGLYAIAVVLSFSRIAYILPANESFGPLQISLGRTVKDIFKFMVIFIMVFVAFMIGMFNLYSYYIGAKQNEAFTTVEESFKTLFWAIFGLSEVKSVVINYNHKFIENIGYVLYGVYNVTMVIVLLNMLIAMINSSFQEIEDDADVEWKFARAKLWFSYFEEGRTLPVPFNLVPSPKSLLYLLLKFKKWMSELIQGHKKGFQEDAEMNKRNEEKKFGILGSHEDLSKFSLDRNQLAHNKQSSTRSSEDFHLNSFSNPPRQYQKIMKRLIKRYVLQAQIDKESDEVNEGELKEIKQDISSLRYELLEEKSQNTEDLAELIRKLGERLSLESKQEESRR
Turning to B1, the binding entry in experiment [1] and in experiment [2] was “binds” in each case.

The record behind these values is doi:10.1101/278911.
